{"source": "PubChem BioAssay AID493014", "about": "(National Center for Advancing Translational Sciences (NCATS), 2011)", "note": "In all, about 340,000 compounds went through this assay and about 170 (0.05%) were called active. The inconclusive results got no clear call from the source; some entries with a clear call stand among them for comparison. Calls follow the shape of the dose curve; as a rule, active = well fitted inhibition curve with a large enough effect in the signal ratio, with a control signal flat (not every such curve was filed as active); inconclusive = small, poorly fitted or top-dose-only effect, or effect the other way, or a change in a side signal; inactive = flat fitted curve, though single readings scatter; the % refers to the signal ratio. Potencies beside an inconclusive call are fits to weak or partial responses and may not hold up. Potency is read from the fitted curve at half-maximal effect."}
{"test": "qHTS Assay to Find Inhibitors of Chronic Active B-Cell Receptor Signaling;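 as to activity change, negative = inhibition: plate controls were basal doxycycline-induced cells for no effect and cells given 10 µM MG132 for full effect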", "conditions": "ABC-DLBCL IkBa-CBG/CBR reporter, luminescence ratio (green luciferase fused to IkBa over red control in TMD8 lymphoma cells), 4 h; activity change, negative = inhibition: at 46.1 µM (top of the series)", "procedure,_shortened": "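TMD8 ABC-DLBCL cells carrying doxycycline-inducible green luciferase fused to IkappaBalpha plus unfused red luciferase were exposed to compounds (up to 46 uM) for 4 hrs at 37C. Activity came from the overlap-corrected green/red luminescence ratio.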"}
{"smiles": "O=C(NC1CC2CCCC(C1)N2C(=S)NCCc1ccccc1)C1CC1", "note": "(centres undefined)", "activity change, negative = inhibition": "inconclusive: 15.8%"}
{"smiles": "CCc1ccc(NC(=O)Cn2c(=O)c3cccn3c3ccccc32)cc1", "activity change, negative = inhibition": "inconclusive: 10.2%"}
{"smiles": "O=C(O)c1cc(-c2cccs2)nc2cc3c(cc12)OCCO3", "activity change, negative = inhibition": "inconclusive: -24.8%"}
{"smiles": "Cc1nn(-c2ccccc2)c(C)c1C(=O)OCC(=O)Nc1ccc2c(c1)OCO2", "Potency": "inconclusive: 20 µM [falling, single point]"}
{"smiles": "O=C(N/N=C\\c1cccc(F)c1)c1ccc(-c2ccccc2)cc1", "activity change, negative = inhibition": "inconclusive: 8.62%"}
{"smiles": "CCOc1ccc2nc(N(CCN(C)C)C(=O)/C=C/c3cccs3)sc2c1", "Potency": "inconclusive: 17.8 µM [falling, partial curve]"}
{"smiles": "O=C(NNC1=NCCC1)c1cccc(Br)c1", "activity change, negative = inhibition": "inactive"}
{"smiles": "O=C(CSc1nc2ccc(NC(=O)CSc3nnnn3Cc3ccccc3)cc2s1)Nc1ccccc1", "Potency": "inconclusive: 1.3 µM [falling, full curve, poor fit]"}
{"smiles": "CSC(=NC#N)N1CCN(c2c(C)cccc2C)CC1", "activity change, negative = inhibition": "inactive"}
{"smiles": "Cc1c(C(=O)NCc2ccccc2Cl)oc2c1C(=O)CCC2", "Potency": "inconclusive: 29.1 µM [falling, single point]"}
{"smiles": "Cc1[nH]c2ccccc2c1-c1nc(-c2ccc(Cl)cc2)nnc1-c1ccccc1", "Potency": "inconclusive: 10 µM [falling, partial curve, poor fit]"}
{"smiles": "CC1CCCN(Cc2nc3c(c(=O)n(C)c(=O)n3C)n2CCCc2ccccc2)C1", "note": "(centres undefined)", "activity change, negative = inhibition": "inconclusive: 12.3%"}
{"smiles": "O=C(COc1ccccc1)N(CCc1ccccc1)c1nc(-c2ccc(F)cc2)cs1", "activity change, negative = inhibition": "inconclusive: 15.4%"}
{"smiles": "CCOc1ccc(OCCC(=O)OCC(=O)N2CCN(S(=O)(=O)c3ccc(Cl)cc3)CC2)cc1", "activity change, negative = inhibition": "inconclusive: 10.5%"}
{"smiles": "CCOC(=O)c1ccc(NC(=O)CN2C(=O)CSC2=O)cc1", "activity change, negative = inhibition": "inconclusive: 4.69%"}
{"smiles": "O=C(C1CCN(Cc2nc(-c3ccc(Cl)cc3)no2)CC1)N1CCOCC1", "activity change, negative = inhibition": "inconclusive: -2.02%"}
{"smiles": "COc1ccc(-c2csc(-n3cccn3)n2)cc1", "activity change, negative = inhibition": "inconclusive: 1.75%"}
{"smiles": "CC(C)=NOc1cc(NC(=O)CCl)cc([N+](=O)[O-])c1", "activity change, negative = inhibition": "inconclusive: 6.47%"}
{"smiles": "COc1ccc(NC(=O)n2nc(OC(=O)c3cccs3)cc2N)cc1", "Potency": "inconclusive: 35.5 µM [rising, single point]"}
{"smiles": "O=S(=O)(CCSc1nc2ccccc2o1)c1nc2ccccc2s1", "Potency": "inconclusive: 29.1 µM [rising, partial curve, poor fit]"}
{"smiles": "COc1ccc(CN2CCCC(N3CCN(c4cccc(Cl)c4)CC3)C2)cc1OC", "note": "(centres undefined)", "activity change, negative = inhibition": "inactive"}
{"smiles": "CCN(CC)C(=O)[C@H]1CC(CC(=O)NCCC2=CCCCC2)C(=O)N2CCc3c([nH]c4ccccc34)[C@]12C", "note": "(some centres undefined)", "activity change, negative = inhibition": "inconclusive: -20.4%"}
{"smiles": "COc1cc(C(C)=O)ccc1Oc1ncnc2c1cnn2-c1ccc(F)cc1", "activity change, negative = inhibition": "inconclusive: 15.3%"}
{"smiles": "CCn1c(SCC(=O)Nc2cc(OC)ccc2OC)nnc1C1CCCCC1", "activity change, negative = inhibition": "inconclusive: 13.2%"}
{"smiles": "O=C(NCCO)C1(c2ccccc2)CCCC1", "activity change, negative = inhibition": "inconclusive: -4.48%"}
{"smiles": "CCOc1cc(NC(=O)Nc2ccccc2)c(OCC)cc1NC(=O)CC", "activity change, negative = inhibition": "inconclusive: 3.13%"}
{"smiles": "CCCCNC(=O)C1(O)c2ccccc2NC(=O)N1c1ccc(Cl)cc1", "note": "(centres undefined)", "activity change, negative = inhibition": "inconclusive: 1.62%"}
{"smiles": "CCCN(CCC)CCCNC(=O)c1cc2c(=O)[nH]c3ccccc3c2s1", "activity change, negative = inhibition": "inactive"}
{"smiles": "Cc1ccc(-c2nc3c4ccccc4ccn3c2CN2CCCCC2)cc1", "activity change, negative = inhibition": "inconclusive: 13.3%"}
{"smiles": "O=C(C[n+]1cc(Br)cc2ccccc21)c1ccc(F)cc1", "activity change, negative = inhibition": "inconclusive: -8.88%"}
{"smiles": "Cc1ccc(CN2C(=O)N/C(=C/c3ccc(-c4ccc(C(=O)O)cc4)o3)C2=O)cc1", "Potency": "inconclusive: 22.4 µM [falling, partial curve]"}
{"smiles": "CN1CCN(C(=S)c2ccc(Br)cc2)CC1", "activity change, negative = inhibition": "inactive"}
{"smiles": "COc1ccc(/C=N/n2c(SC)nnc2-c2ccccc2)c(OC)c1OC", "Potency": "inconclusive: 11.2 µM [falling, partial curve]"}
{"smiles": "Cn1cnc([N+](=O)[O-])c1Sc1ccc(Br)cc1", "Potency": "inconclusive: 18.4 µM [falling, single point]"}
{"smiles": "COc1ccc(C(=O)C2CCN(C(=S)NCC3CCCO3)CC2)cc1", "note": "(centres undefined)", "Potency": "inconclusive: 35.5 µM [falling, single point]"}
{"smiles": "COc1ccc(OC)c(CNC(=O)Cc2c(C(=O)O)[nH]c3ccc(Cl)cc23)c1", "activity change, negative = inhibition": "inconclusive: -1.4%"}
{"smiles": "O=C(Nc1ccccc1)c1nc[nH]c1C(=O)NCCCNC(=O)c1[nH]cnc1C(=O)Nc1ccccc1", "activity change, negative = inhibition": "inconclusive: -2.12%"}
{"smiles": "Cn1c(=O)n(C)c2cc([N+](=O)[O-])c(N3CCN(C(=O)c4ccccc4)CC3)cc21", "activity change, negative = inhibition": "inactive"}
{"smiles": "COc1ccc(NS(=O)(=O)c2cc(NC(=O)c3cccs3)ccc2N2CCCC2)cc1", "Potency": "inconclusive: 6.51 µM [falling, partial curve]"}
{"smiles": "CCCCN(CC)CCNC(=S)Nc1ccc2nc(N3CCN(C)CC3)cc(C)c2c1", "Potency": "inconclusive: 11.2 µM [falling, partial curve]"}
{"smiles": "S=c1[nH]nc(-c2ccco2)n1/N=C/C(Cl)=C/c1ccccc1", "Potency": "inconclusive: 28.2 µM [cytotoxic, partial curve]"}
{"smiles": "COc1ccc(C(=O)OCC(=O)NC(=O)NC2CCCC2)cc1OC", "activity change, negative = inhibition": "inconclusive: -9.48%"}
{"smiles": "O=C(NCCCN1CCOCC1)c1ccccc1NS(=O)(=O)c1ccc(F)cc1", "activity change, negative = inhibition": "inconclusive: 2.15%"}
{"smiles": "O=C(Nc1ccccc1-c1nnc(SCc2ccc(Cl)cc2)o1)c1ccccc1", "Potency": "inconclusive: 4.61 µM [rising, single point]"}
{"smiles": "COc1ccc(/C=C2/SC(=O)N(NS(=O)(=O)c3ccccc3)C2=S)cc1OC", "activity change, negative = inhibition": "inconclusive: -8.8%"}
{"smiles": "CN(C)S(=O)(=O)c1cccc(C(=O)NCC(C)(C)CNC(=O)c2cccc(S(=O)(=O)N(C)C)c2)c1", "activity change, negative = inhibition": "inconclusive: -9.11%"}
{"smiles": "COc1ccc(-c2cc3cc4c(cc3cn2)OCO4)cc1", "activity change, negative = inhibition": "inconclusive: 0.264%"}
{"smiles": "Cc1ccc(SCC(=O)NNC(=O)CCS(=O)(=O)c2ccccc2)cc1", "activity change, negative = inhibition": "inconclusive: 5.08%"}
{"smiles": "CCCCN(C)CCC(=O)Nc1ccc2c(c1)CCC2", "activity change, negative = inhibition": "inconclusive: -11.9%"}
{"smiles": "Cc1ccc(S(=O)(=O)CC(=O)N(C)C)cc1", "activity change, negative = inhibition": "inconclusive: -0.959%"}
{"smiles": "COC(=O)c1c(NC(=O)C(=O)N2CCCCC2)sc2c1CC(C)(C)OC2", "activity change, negative = inhibition": "inconclusive: 9.85%"}
{"smiles": "COc1ccc2nc(NC(=O)c3ccc4ncsc4c3)sc2c1", "Potency": "inconclusive: 14.6 µM [falling, partial curve]"}
{"smiles": "COc1ccccc1/C=C/C(=O)NCC(=O)N/N=C/c1ccccc1", "activity change, negative = inhibition": "inactive"}
{"smiles": "O=C(Nc1ccc(Cl)cn1)c1cccc2ccccc12", "Potency": "inconclusive: 6.31 µM [rising, partial curve, poor fit]"}
{"smiles": "COC(=O)/C=C1\\S/C(=N/NC(=O)c2ccccc2)NC1=O", "Potency": "inconclusive: 5.8 µM [rising, full curve, poor fit]"}
{"smiles": "COc1ccc(-c2nc(N3CCC(C)CC3)[nH]c(=O)c2C#N)cc1", "activity change, negative = inhibition": "inconclusive: 4.29%"}
{"smiles": "O=C(CSc1nn(-c2ccccc2)c(=S)s1)Nc1ncccn1", "activity change, negative = inhibition": "inconclusive: 12.3%"}
{"smiles": "CSc1ccc(CN2CCN(C(=O)c3ccc([N+](=O)[O-])cc3)CC2)cc1", "activity change, negative = inhibition": "inconclusive: -5.49%"}
{"smiles": "Clc1cccc(CN2CCCCCCC2)c1Cl", "activity change, negative = inhibition": "inconclusive: 0.131%"}
{"smiles": "COc1cccc(NC(=O)c2ccc3c(c2)N(CC(=O)N2CCOCC2)C(=O)C(C)(C)O3)c1", "activity change, negative = inhibition": "inconclusive: 3.41%"}
{"smiles": "Cc1[nH]c(=O)[nH]c(=O)c1/C=N\\NC(=O)CCc1ccc(OC(C)C)cc1", "activity change, negative = inhibition": "inactive"}
{"smiles": "O=[N+]([O-])c1nn(-c2ccc(Cl)cc2)n(O)c1=NCc1cccnc1", "Potency": "inconclusive: 9.2 µM [rising, partial curve, poor fit]"}
{"smiles": "CCCCOc1ccc(C(=O)NCC(=O)N2CCN(C(=O)c3ccco3)CC2)cc1", "activity change, negative = inhibition": "inactive"}
{"smiles": "CCC1=NN2C(=N)/C(=C\\c3cccn3-c3cccc(Cl)c3)C(=O)N=C2S1", "activity change, negative = inhibition": "inconclusive: 18.5%"}
{"smiles": "O=C(CCNS(=O)(=O)c1ccc(Br)cc1)NC1CCC(O)CC1", "note": "(centres undefined)", "activity change, negative = inhibition": "inconclusive: 4.78%"}
{"smiles": "O=C(COc1ccccc1)N(Cc1cccnc1)c1nc2c(F)cc(F)cc2s1", "activity change, negative = inhibition": "inactive"}
{"smiles": "Cc1sc(C2C(C#N)=C(N)N(c3ccc(Cl)cc3)C3=C2C(=O)CCC3)cc1CN1CCOCC1", "note": "(centres undefined)", "activity change, negative = inhibition": "inconclusive: -1.92%"}
{"smiles": "COc1ccc(C(C(=O)NC2CCCC2)N(Cc2ccccc2)C(=O)c2nsc(Cl)c2Cl)cc1", "note": "(centres undefined)", "activity change, negative = inhibition": "inconclusive: 19.5%"}
{"smiles": "CC[C@]12c3[nH]c4ccccc4c3CCN1C(=O)C(CC(=O)NC/C=C(\\C)CCC=C(C)C)C[C@@H]2C(=O)N1CCN(C(=O)c2ccco2)CC1", "note": "(some centres undefined)", "activity change, negative = inhibition": "inconclusive: 0.98%"}
{"smiles": "O=C(Nc1ccc(S(=O)(=O)N2CCCCC2)cc1)c1ccccc1Cl", "activity change, negative = inhibition": "inactive"}
{"smiles": "O=C(O)c1ccc(N=Nc2c(O)[nH]c3cc(Cl)ccc23)cc1", "activity change, negative = inhibition": "inconclusive: 190%"}
{"smiles": "C=CCn1c(=O)c(C(=O)Nc2ccccc2C)c(O)c2ccccc21", "activity change, negative = inhibition": "inconclusive: 0.718%"}
{"smiles": "Cc1ccc(S(=O)(=O)NCC(=O)OC2CCOC2=O)cc1", "note": "(centres undefined)", "activity change, negative = inhibition": "inactive"}
{"smiles": "COc1cc2sc(-c3ccccc3OC)c(-c3ccc(O)cc3)c2cc1OC", "activity change, negative = inhibition": "inconclusive: 7.62%"}
{"smiles": "CCN(CC)C(=O)Cn1cnc2sc(C)c(S(=O)(=O)N3CCC(C)CC3)c2c1=O", "activity change, negative = inhibition": "inactive"}
{"smiles": "CCOC(=O)CN1CC23C=CC(O2)C(C(=O)NCc2ccc(C)cc2)C3C1=O", "note": "(centres undefined)", "activity change, negative = inhibition": "inconclusive: 8.08%"}
{"smiles": "Cc1snc(SCc2ccc(Cl)cc2)c1C#N", "activity change, negative = inhibition": "inconclusive: 8.89%"}
{"smiles": "Cn1c(=O)n(C)c2cc(NS(=O)(=O)c3ccc(Br)s3)ccc21", "activity change, negative = inhibition": "inconclusive: -21.3%"}
{"smiles": "CCN(CC)S(=O)(=O)c1ccc(-c2nnc(SCc3nnc(-c4ccc(C)cc4)o3)n2CC)cc1", "activity change, negative = inhibition": "inactive"}
